Source: patent EP2748199B1 (Board of Regents, The University of Texas System, dated 2019)
No constants are given. Whether binding was seen depends on the method and setting. Some binding calls cover weakened binding; strength is not graded here.

T1: human OX40 (human, UniProt P43489 29-277)
T1 construct: whole, on cells; The construct used for transfection is not described; also called hOX40; OX40 receptor
T1 sequence (looked up): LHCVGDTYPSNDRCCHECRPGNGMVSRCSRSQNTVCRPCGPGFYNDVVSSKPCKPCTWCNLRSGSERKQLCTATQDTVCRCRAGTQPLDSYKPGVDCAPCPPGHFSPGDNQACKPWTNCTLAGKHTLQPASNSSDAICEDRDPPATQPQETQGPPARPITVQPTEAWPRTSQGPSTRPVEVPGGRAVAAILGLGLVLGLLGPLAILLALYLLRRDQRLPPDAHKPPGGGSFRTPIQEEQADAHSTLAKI

B1: Humanized 106-222 IgG1/kappa monoclonal antibody (antibody, V domains shown)
VH: QVQLVQSGSELKKPGASVKVSCKASGYTFTDYSMHWVRQAPGQGLKWMGWINTETGEPTYADDFKGRFVFSLDTSVSTAYLQISSLKAEDTAVYYCANPYYDYVSYYAMDYWGQGTTVTVSS
VL: DIQMTQSPSSLSASVGDRVTITCKASQDVSTAVAWYQQKPGKAPKLLIYSASYLYTGVPSRFSGSGSGTDFTFTISSLQPEDIATYYCQQHYSTPRTFGQGTKLEIK
B2: mouse 106-222 (antibody, V domains shown)
VH: QIQLVQSGPELKKPGETVKISCKASGYTFTDYSMHWVKQAPGKGLKWMGWINTETGEPTYADDFKGRFAFSLETSASTAYLQINNLKNEDTATYFCANPYYDYVSYYAMDYWGHGTSVTVSS
VL: DIVMTQSHKFMSTSVRDRVSITCKASQDVSTAVAWYQQKPGQSPKLLIYSASYLYTGVPDRFTGSGSGTDFTFTISSVQAEDLAVYYCQQHYSTPRTFGGGTKLEIK
B3: mouse 119-122 (antibody, V domains shown)
VH: EVQLVESGGGLVQPGESLKLSCESNEYEFPSHDMSWVRKTPEKRLELVAAINSDGGSTYYPDTMERRFIISRDNTKKTLYLQMSSLRSEDTALYYCARHYDDYYAWFAYWGQGTLVTVSA
VL: DIVLTQSPASLAVSLGQRATISCRASKSVSTSGYSYMHWYQQKPGQPPKLLIYLASNLESGVPARFSGSGSGTDFTLNIHPVEEEDAATYYCQHSRELPLTFGAGTKLELK
B4: Chimeric 106-222 IgG1/kappa monoclonal antibody (antibody, V domains shown)
VH: B2 VH
VL: B2 VL
B5: Humanized 119-122 IgG1/kappa monoclonal antibody (antibody, V domains shown)
VH: EVQLVESGGGLVQPGGSLRLSCAASEYEFPSHDMSWVRQAPGKGLELVAAINSDGGSTYYPDTMERRFTISRDNAKNSLYLQMNSLRAEDTAVYYCARHYDDYYAWFAYWGQGTMVTVSS
VL: EIVLTQSPATLSLSPGERATLSCRASKSVSTSGYSYMHWYQQKPGQAPRLLIYLASNLESGVPARFSGSGSGTDFTLTISSLEPEDFAVYYCQHSRELPLTFGGGTKVEIK
B6: Chimeric 119-122 IgG1/kappa monoclonal antibody (antibody, V domains shown)
VH: B3 VH
VL: B3 VL

Legend:
human OX40 [1] = biological target: T1, human OX40; test: FACS binding assay on L/hOX40 cells
human OX40 [2] = biological target: T1, human OX40; test: FACS binding assay on L/hOX40 cells, PE goat anti-human IgG
human OX40 [3] = biological target: T1, human OX40; test: flow cytometry, mixed SUPM2 and SUPM2-hOX40 cells
human OX40 [4] = biological target: T1, human OX40; test: FACS binding assay on L/hOX40 cells, PE goat anti-mouse IgG
human OX40 [5] = biological target: T1, human OX40; test: cell ELISA, hybridoma supernatants on dried L-hOX40 cells vs parental L cells
human OX40 [6] = biological target: T1, human OX40; test: flow cytometry, mixed L and L-hOX40 cells, 0.5 µg purified antibody, PE anti-mouse IgG
human OX40 [7] = biological target: T1, human OX40; test: FACS binding assay on L/OX40 cells, PE goat anti-human IgG

Binder	binding (human OX40 [2])	binding (human OX40 [3])	binding (human OX40 [5])	binding (human OX40 [6])	binding (human OX40 [7])	also measured
B1	binds	–	–	–	–	binding (human OX40 [1]): binds
B2	–	binds	binds	binds	–	binding (human OX40 [4]): binds
B3	–	binds	binds	binds	–	–
B4	binds	–	–	–	–	–
B5	–	–	–	–	binds	–
B6	–	–	–	–	binds	–
